According to patent US20240316012A1, “METHODS FOR TREATING LYMPHOMA” (Northwestern University, priority 2023, published 2024):
At least one compound was matched to its structure with a doubt left.

Test system: ACLY (p-ACLY^S455)
Assay: Western blot analysis of p-ACLY^S455
Assay type: cell-based, mouse
Conditions: overnight in vitro with anti-PD-L1; Wortmannin 20 nM, LY294002 20 μM; 2 μM, 10 μM
Description: FIGS. 4A-4H show ACLY is a critical effector molecule downstream of PD-1. […] ITK-SYK^+ cells were FACS-sorted from ITK-SYK^CD4-creERT2 mice on d5 after TAM and 12 h anti-PD-L1 or isotype control antibody treatment (i.p., 200 μg). P=paired two-sided Student's t-test. Data are presented as the mean±SD. […] Spleen-derived single-cell suspensions were FACS-sorted from ITK-SYK^CD4-creERT2 mice on d5 after TAM and cultured in vitro overnight with anti-PD-L1 or isotype control antibodies and the PI3K inhibitors (“iPI3K”) Wortmannin (20 nM), LY294002 (20 μM), or DMSO. […] Spleen-derived lymphocytes, FACS-sorted from ITK-SYK^CD4-creERT2 and ITK-SYK^CD4-creERT2; Pdcd1^−/− mice on d5 after TAM were incubated for three days in vitro. P=two-sided Student's t-test. Data are presented as the mean±SD. […] Protein lysates were generated after 48 h in vitro culture. RNP, ribonucleoprotein. […] P=two-sided Logrank-test. […] ITK-SYK^+ cells were FACS-sorted from ITK-SYK^CD4-creERT2 (“Pdcd1^+/+”) and ITK-SYK^CD4-creERT2; Pdcd1^−/− (“Pdcd1^−/−”) mice on d5 after TAM, fixed, and processed for anti-H3K27ac ChIP-seq analysis. ChIP-seq, chromatin immunoprecipitation sequencing; TSS, transcription start site. FIG. 4B, Representative data from three independent experiments with three biological replicates per group. FIG. 4C, Representative data from two independent experiments with two biological replicates. […]

With `COC[C@H]1OC(=O)c2coc3c2[C@@]1(C)C1=C(C3=O)[C@@H]2CCC(=O)[C@@]2(C)C[C@H]1OC(C)=O` [wortmannin] the “p-ACLY^S455 phosphorylation induced by PD-1 inactivation” value was “could be reversed”.
